Patent publication US11827616B2, “Heterocyclic compounds as pesticides” (Discovery Purchaser Corporation, priority 2018, dated 2023)
Some results were stated once for a whole list of compounds, not compound by compound. At least one structure is not confirmed: it was looked up by name or label, or the drawing left a doubt. Some ranges recur; such a range may be that of the whole group of compounds.

Experiments:
Assay type in all cases: in vivo
Details in all cases: exposure 30 minutes, 24 hours after contact
[1] = tested on: Anopheles gambiae strain RSPH (homozygot kdr); assay: Anopheles test (ANPHGB surface treatment)
Description: Anopheles Test (ANPHGB Surface Treatment)
(§1) Solvent: acetone+2000 ppm rapeseed oil methyl ester (RME)
(§2) To produce an appropriate active compound formulation, the active compound is dissolved in the solvent (2 mg/ml). The active compound formulation is pipetted onto a glazed tile and, after it has dried off, adult mosquitoes of the species Anopheles gambiae strain RSPH (homozygot kdr) are placed onto the treated tile. The exposure time is 30 minutes.
(§3) 24 hours after contact with the treated surface, mortality in % is determined. 100% means that all mosquitoes have been killed; 0% means that none of the mosquitoes have been killed.

[2] = tested on: Anopheles funestus strain FUMOZ-R; assay: Anopheles test (ANPHFU surface treatment)
Description: Anopheles Test (ANPHFU Surface Treatment)
as §1
as §2, with “funestus” for “gambiae”, “FUMOZ-R (Hunt et al., Med Vet Entomol. 2005 Sep.; 19 (3):271-5)” for “RSPH (homozygot kdr)”
as §3

[3] = tested on: Aedes aegypti strain MONHEIM; assay: Aedes test (AEDSAE surface treatment)
Description: Aedes Test (AEDSAE Surface Treatment)
as §1
as §2, with “Aedes aegypti” for “Anopheles gambiae”, “MONHEIM” for “RSPH (homozygot kdr)”, “minutes. 24 hours after contact with the treated surface, mortality in % is determined. 100% means that all mosquitoes have been killed; 0% means that none of the mosquitoes have been killed.” for “minutes.”

Measured: efficacy (mortality in %)

CON(C)CCOc1cnc(COc2ccc(F)c(-c3cccc(OC(F)(F)F)c3)c2)c(C)c1 [Example 59]
80-100%: [1]; application rate 20 mg/m^2 | [2]; application rate 20 mg/m^2 | [3]; application rate 20 mg/m^2

CON(C)CCOc1ccc(COc2cccc(-c3cccc(OC(F)(F)F)c3)c2)nc1 [Example 64]
80-100%: [1]; application rate 20 mg/m^2 | [2]; application rate 20 mg/m^2 | [3]; application rate 20 mg/m^2

CON(C)CCOc1ccc(COc2ccc(F)c(-c3cccc(Cl)c3)c2)nc1 [Example 65]
80-100%: [1]; application rate 20 mg/m^2 | [2]; application rate 20 mg/m^2 | [3]; application rate 20 mg/m^2

CON(C)CCOc1cnc(COc2cccc(-c3ccccc3)c2)c(F)c1 [Example 70]
80-100%: [1]; application rate 20 mg/m^2 | [1]; application rate 100 mg/m^2 | [2]; application rate 20 mg/m^2 | [2]; application rate 100 mg/m^2 | [3]; application rate 20 mg/m^2 | [3]; application rate 100 mg/m^2

CON(C)CCOc1cnc(COc2ccc(Cl)c(OC(F)(F)F)c2)c(F)c1 [Example 72]
80-100%: [1]; application rate 20 mg/m^2 | [2]; application rate 20 mg/m^2 | [3]; application rate 20 mg/m^2

CON(C)CCOc1ccc(COc2ccc(Cl)c(OC(F)(F)F)c2)nc1 [Example 73]
80-100%: [1]; application rate 20 mg/m^2 | [2]; application rate 20 mg/m^2 | [3]; application rate 20 mg/m^2

CON(C)CCOc1cnc(COc2ccc(Cl)c(I)c2)c(F)c1 [Example 76]
80-100%: [1]; application rate 20 mg/m^2 | [1]; application rate 100 mg/m^2 | [2]; application rate 20 mg/m^2 | [2]; application rate 100 mg/m^2 | [3]; application rate 20 mg/m^2 | [3]; application rate 100 mg/m^2

CON(C)CCOc1cnc(COc2cccc(-c3cccc(Cl)c3)c2)c(F)c1 [Example 80]
80-100%: [1]; application rate 20 mg/m^2 | [2]; application rate 20 mg/m^2 | [3]; application rate 20 mg/m^2

CON(C)CCOc1cnc(COc2cccc(-c3cccc(F)c3)c2)c(F)c1 [Example 85]
80-100%: [1]; application rate 20 mg/m^2 | [2]; application rate 20 mg/m^2 | [3]; application rate 20 mg/m^2

COc1nc(COc2cccc3c(Cl)c(Cl)ccc23)ccc1OCCN(C)OC [Example 96]
80-100%: [1]; application rate 20 mg/m^2 | [2]; application rate 20 mg/m^2 | [3]; application rate 20 mg/m^2
